Results reported in PMC12022261.
No constants are given. Whether binding was seen depends on the method and setting. Binding seen in cells or lysates may run through a third protein. Some entries that bind do so weakly or less than the wild type.

The chains behind the UniProt entries cited, without tags or fusion partners.
UniProt Q96QT4: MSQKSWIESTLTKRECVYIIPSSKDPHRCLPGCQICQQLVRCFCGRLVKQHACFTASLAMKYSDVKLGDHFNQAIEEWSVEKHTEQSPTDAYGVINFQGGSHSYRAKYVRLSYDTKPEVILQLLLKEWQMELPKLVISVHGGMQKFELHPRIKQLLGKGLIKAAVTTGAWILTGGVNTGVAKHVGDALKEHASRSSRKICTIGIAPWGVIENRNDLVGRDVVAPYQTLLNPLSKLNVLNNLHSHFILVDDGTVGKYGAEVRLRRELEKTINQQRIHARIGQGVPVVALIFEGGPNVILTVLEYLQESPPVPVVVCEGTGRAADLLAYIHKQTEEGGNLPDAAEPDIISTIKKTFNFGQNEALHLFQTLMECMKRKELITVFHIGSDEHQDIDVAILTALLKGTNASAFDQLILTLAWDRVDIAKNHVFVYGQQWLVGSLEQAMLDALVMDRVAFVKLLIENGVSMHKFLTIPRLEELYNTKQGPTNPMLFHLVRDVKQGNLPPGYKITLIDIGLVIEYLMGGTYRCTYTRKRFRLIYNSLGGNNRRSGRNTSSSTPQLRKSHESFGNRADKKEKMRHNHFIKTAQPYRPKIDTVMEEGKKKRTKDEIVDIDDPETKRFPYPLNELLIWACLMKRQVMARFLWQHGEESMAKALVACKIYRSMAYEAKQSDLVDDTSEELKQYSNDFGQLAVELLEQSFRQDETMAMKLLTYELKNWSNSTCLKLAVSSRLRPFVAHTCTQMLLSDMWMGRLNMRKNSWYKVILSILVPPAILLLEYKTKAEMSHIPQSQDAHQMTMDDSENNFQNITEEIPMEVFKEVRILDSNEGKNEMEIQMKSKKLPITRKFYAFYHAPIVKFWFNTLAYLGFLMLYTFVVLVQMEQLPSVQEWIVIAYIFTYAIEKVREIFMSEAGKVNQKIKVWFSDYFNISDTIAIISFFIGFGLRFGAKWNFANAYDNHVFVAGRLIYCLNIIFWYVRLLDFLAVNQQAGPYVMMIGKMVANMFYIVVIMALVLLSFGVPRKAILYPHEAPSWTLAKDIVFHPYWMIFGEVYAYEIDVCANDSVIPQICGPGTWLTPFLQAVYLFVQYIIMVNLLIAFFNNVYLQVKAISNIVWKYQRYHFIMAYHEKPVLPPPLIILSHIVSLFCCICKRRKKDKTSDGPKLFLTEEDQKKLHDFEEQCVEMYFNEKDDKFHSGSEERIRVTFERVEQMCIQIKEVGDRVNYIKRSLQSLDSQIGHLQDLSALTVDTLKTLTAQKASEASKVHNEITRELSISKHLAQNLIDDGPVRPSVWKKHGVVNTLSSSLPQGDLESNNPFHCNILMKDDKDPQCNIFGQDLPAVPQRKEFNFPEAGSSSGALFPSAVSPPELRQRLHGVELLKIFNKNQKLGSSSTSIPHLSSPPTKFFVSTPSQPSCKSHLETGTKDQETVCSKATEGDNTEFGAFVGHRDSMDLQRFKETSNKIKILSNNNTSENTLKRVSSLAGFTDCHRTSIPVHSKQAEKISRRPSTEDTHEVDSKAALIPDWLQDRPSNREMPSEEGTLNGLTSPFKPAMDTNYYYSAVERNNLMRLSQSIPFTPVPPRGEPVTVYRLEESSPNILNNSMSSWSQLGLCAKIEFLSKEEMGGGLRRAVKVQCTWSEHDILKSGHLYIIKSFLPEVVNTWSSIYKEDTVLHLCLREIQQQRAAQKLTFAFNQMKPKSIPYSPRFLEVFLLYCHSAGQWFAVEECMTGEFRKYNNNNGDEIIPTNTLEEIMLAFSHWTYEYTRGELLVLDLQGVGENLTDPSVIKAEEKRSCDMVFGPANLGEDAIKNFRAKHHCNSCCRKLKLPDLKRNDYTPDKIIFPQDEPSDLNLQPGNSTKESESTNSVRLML
UniProt P61586: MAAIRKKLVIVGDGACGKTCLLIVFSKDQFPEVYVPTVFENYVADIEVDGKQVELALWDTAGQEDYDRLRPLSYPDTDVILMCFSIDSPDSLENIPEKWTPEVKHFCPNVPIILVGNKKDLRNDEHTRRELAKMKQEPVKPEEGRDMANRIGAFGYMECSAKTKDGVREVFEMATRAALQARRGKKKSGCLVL

Biological target: Transient Receptor Potential Cation Channel Subfamily M Member 7 (TRPM7) (human (endogenous in PANC-1, MIA PaCa-2 and HPNE)) (UniProt Q96QT4)
Assay: co-IP; PDAC cells (cell line not given, Fig. S1); co-immunoprecipitation of TRPM7 and RhoA

RhoA (from UniProt P61586 1-193)
binding: binds
